Experimental data reported in article PMC11898301.
No constants are given. Whether binding was seen depends on the method and setting. For part of these data: Binding seen in cells or lysates may run through a third protein. Some binding calls cover weakened binding; strength is not graded here. For part of these data: Where a sequence is shown, tags or fusion partners need not be part of it.

Sequences of proteins named here, by UniProt entry; tags and fusion partners are left off.
UniProt P49841: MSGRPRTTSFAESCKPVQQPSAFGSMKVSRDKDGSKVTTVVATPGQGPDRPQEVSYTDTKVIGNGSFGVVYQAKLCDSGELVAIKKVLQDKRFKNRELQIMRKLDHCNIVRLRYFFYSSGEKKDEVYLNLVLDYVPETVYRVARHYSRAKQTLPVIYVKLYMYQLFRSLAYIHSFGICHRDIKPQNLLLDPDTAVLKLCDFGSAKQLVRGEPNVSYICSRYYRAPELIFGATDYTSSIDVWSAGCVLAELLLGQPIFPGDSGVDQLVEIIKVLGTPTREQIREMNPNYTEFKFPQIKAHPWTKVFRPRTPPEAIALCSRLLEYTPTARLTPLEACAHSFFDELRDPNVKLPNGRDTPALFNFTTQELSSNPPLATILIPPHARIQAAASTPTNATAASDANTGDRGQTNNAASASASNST
UniProt Q969H0: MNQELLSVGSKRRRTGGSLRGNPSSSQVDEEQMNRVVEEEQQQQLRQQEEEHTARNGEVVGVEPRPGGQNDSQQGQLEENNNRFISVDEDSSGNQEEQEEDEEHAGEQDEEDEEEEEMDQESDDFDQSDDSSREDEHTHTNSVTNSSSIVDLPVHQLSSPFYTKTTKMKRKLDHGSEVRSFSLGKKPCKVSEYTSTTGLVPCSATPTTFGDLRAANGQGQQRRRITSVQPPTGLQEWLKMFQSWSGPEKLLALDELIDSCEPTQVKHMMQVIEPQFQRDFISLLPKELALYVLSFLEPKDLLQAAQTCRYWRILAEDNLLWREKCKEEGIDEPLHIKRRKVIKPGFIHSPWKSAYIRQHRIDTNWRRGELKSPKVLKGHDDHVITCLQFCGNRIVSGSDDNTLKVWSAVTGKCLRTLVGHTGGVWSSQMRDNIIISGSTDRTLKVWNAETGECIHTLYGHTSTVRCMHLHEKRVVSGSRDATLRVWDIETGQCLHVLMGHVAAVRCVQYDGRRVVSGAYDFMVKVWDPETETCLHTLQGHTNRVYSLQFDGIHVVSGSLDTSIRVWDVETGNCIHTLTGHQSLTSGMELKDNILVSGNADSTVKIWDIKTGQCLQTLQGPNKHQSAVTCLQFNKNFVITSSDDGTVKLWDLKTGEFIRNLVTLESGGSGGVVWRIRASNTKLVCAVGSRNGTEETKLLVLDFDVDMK

Legend:
[1] = target: T1, HA-PRR11 (amino acids 251-360) (human) (UniProt Q96HE9); experiment: co-IP; 293T cells transfected with HA-PRR11 (WT, fragments or mutants) and Flag-GSK3β or Flag-FBXW7 (WT or mutants); MG132 10 μM for 6 h before collection; IP with HA or Flag antibody, Protein A/G magnetic beads, Western blot; in some panels λ-PPase added to extracts, CHIR-99021, siGSK3β or GSK3β overexpression
T1 sequence: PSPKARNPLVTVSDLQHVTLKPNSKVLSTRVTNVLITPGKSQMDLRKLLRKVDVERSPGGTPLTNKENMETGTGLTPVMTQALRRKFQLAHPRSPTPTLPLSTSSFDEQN

[2] = target: T2, HA-PRR11-WT (proline-rich 11) (human) (UniProt Q96HE9); experiment: as above
T2 sequence: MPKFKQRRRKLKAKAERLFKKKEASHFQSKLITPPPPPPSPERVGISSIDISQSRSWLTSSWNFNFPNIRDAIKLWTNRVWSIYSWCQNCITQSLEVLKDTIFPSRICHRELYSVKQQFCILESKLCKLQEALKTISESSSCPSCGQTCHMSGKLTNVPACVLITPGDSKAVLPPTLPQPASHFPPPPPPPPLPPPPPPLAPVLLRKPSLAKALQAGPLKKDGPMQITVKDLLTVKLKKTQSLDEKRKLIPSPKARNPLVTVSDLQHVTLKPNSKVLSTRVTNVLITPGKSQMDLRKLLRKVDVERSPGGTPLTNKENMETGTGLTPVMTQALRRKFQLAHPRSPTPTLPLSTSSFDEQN

[3] = target: T3, endogenous PRR11 (human (endogenous in ACHN and Caki-1)) (UniProt Q96HE9); experiment: co-IP; endogenous proteins in RCC cells (ACHN, Caki-1); IP with GSK3β, PRR11 or FBXW7 antibody, Protein A/G magnetic beads, Western blot; in some panels AKT-CA or AKT-DN transfected
T3 sequence: T2 sequence

[4] = target: T4, recombinant GST-PRR11 (human) (UniProt Q96HE9); experiment: pull-down; GST-PRR11 incubated with His-FBXW7 or His-GSK3β for 3 h at 4°C, then glutathione-Sepharose beads for 2 h at 4°C; eluted with 1× SDS buffer, Western blot; both purified
T4 sequence: T2 sequence

[5] = target: endogenous GSK3β (human (endogenous in ACHN, Caki-1 and 293T)) (UniProt P49841); experiment: co-IP; endogenous proteins in RCC cells (ACHN, Caki-1); IP with GSK3β, PRR11 or FBXW7 antibody, Protein A/G magnetic beads, Western blot; in some panels AKT-CA or AKT-DN transfected

Which results are given for Flag-GSK3β (from UniProt P49841 1-420)?
binding [1]: binds; binding [2]: binds

“endogenous FBXW7 (from UniProt Q969H0 1-707)” was tested. Which binding [3] did it give?
Its binding is “binds”.

For “recombinant His-FBXW7 (from UniProt Q969H0 1-707)”, which binding [4] is on record?
Its binding is “binds”.

With “recombinant His-GSK3β (from UniProt P49841 1-420)” as the molecule, how does the binding [4] read?
The binding was “binds”.

B1: endogenous PRR11 (protein, UniProt Q96HE9 1-360)
chain: T2 sequence
B1 was tested. Which binding [5] did it give?
Its binding is “binds”.
